Most values lie at the floor of the assay. Slopes are relative: functional sequences can read slightly below zero.
System: Saccharomyces cerevisiae PS128 hsf1 delta, HSF1(1-493) fusion
Assay: growth estimate (transactivation domain function in HSF1 fusion, heat-shock survival) (a.u. (slope of normalised read count over time)); higher = stronger growth at 37°C, i.e. more transactivation activity
Conditions: library: random library

Substance	growth estimate
WCSKHIFQM	< -0.25
RDARMVERLLTGSLAKNRAA	< -0.25
VRGRLETTPL	< -0.25
CLLSLEYVRSKNHFVM	< -0.25
KSGKSNPAGWGSTQT	< -0.25
VGAEVTGISSDEFLLLPAIP	< -0.25
CNQHAV	< -0.25
FTSLGPRSCVWRNFPPGGHS	< -0.25
RGGTLFDKPLLTGLRPCLGW	< -0.25
KMDSTRGFRKLARREAPASS	< -0.25
RTILVNILCVGALHPGVTYA	< -0.25
LAFVFFLSGVGGSGEGVLWV	< -0.25
RLF	< -0.25
SAHRSPLLTVCFGVFARSPI	< -0.25
IAFKVAYLGVNLTRRWYFGA	< -0.25
VLKMLA	< -0.25
NNVFRTR	< -0.25
KCEAGEYVIKGRWLIGHAID	< -0.25
ELDWDRGLQWYASNLV	0.358
RWLS	< -0.25
TACVHDPRKDKPEYPLSNLA	< -0.25
RDVAGMHAADMPRA	< -0.25
GAKEFNVRWRTRLSPRGTVE	< -0.25
KITLIRLETGRNLGDRSFVS	< -0.25
RGFRWDVTTAR	< -0.25

Laid out differently: results already given

| Substance | growth estimate |
| --- | --- |
| KSGKSNPAGWGSTQT | < -0.25 |
| RTILVNILCVGALHPGVTYA | < -0.25 |
| SAHRSPLLTVCFGVFARSPI | < -0.25 |
| KCEAGEYVIKGRWLIGHAID | < -0.25 |

(cont.)

Substance	growth estimate
KMS	< -0.25
RLTVREIRG	< -0.25
LGPLKRLTRRGPPCHAQLPV	< -0.25
VKAEYRVILTRLLSDIESPK	< -0.25
LQRTSTASHGDSCAASGPFC	< -0.25
GWGRYGFCFIYMNSSGAHSC	< -0.25
GLVGLACPALGGYVILSPRL	< -0.25
SRGGF	< -0.25
HVSDSIK	< -0.25
SWGG	< -0.25
DNRQCPV	< -0.25
SFVL	< -0.25
WPNKSAFRLTRKISSSDSCP	< -0.25
SFKSLGRTRPSRPGLVSFVH	< -0.25
DCIRASVSWTCRKQRYTASL	< -0.25
SEHLLLLFGFFTLYKSAINL	< -0.25
HSTRLRPKDGFPCPHKSIQY	< -0.25
WQICPRASLIC	< -0.25
TEGCGPTCSGDTVAKALAPV	< -0.25
TFRGWSCNRSEFLERLDKLA	-0.248
LARGET	0.0789
VLVSPGDSVCFMIWDQEGFI	< -0.25
GWK	< -0.25
LLPRFIISVLGASLTLQAQC	< -0.25
YLGYLYKIDG	< -0.25

Substance	growth estimate
EPKAASRIGIAPAKQVLRGT	< -0.25
GRGHNPV	< -0.25
VQAWPLPPGGTLP	< -0.25
QSSGAFRVCPRFRGHADSHT	< -0.25
VCYRVVSDFTWCSCGAETYM	< -0.25
DLLVPRLGVSCSPQRGQSQD	< -0.25
RRKRPFGSGQSKCVLNPFYT	< -0.25
VAWV	< -0.25
TRGHAPGLF	< -0.25
HPLRSTSERFKAAIRHGTES	< -0.25
SARLTSYWVRSECLYASLTK	< -0.25
GIIQGSLHNS	< -0.25
ANARDGTRGEQSCPRWFMWN	< -0.25
HGVPAGRAWHGTYVRIWLLD	< -0.25
LVNRRLFALRIHRMDAPQGA	< -0.25
GLRWTPWWAEIIACVSKGAF	< -0.25
GCGANPVRKR	< -0.25
LRPNRGKLSTSFVWCP	< -0.25
YLVGLPYRLDLSMHHR	< -0.25
SCFNSSLTPARVQFWRLRPC	< -0.25
LSTLRSKRTLLSSRCVDALA	< -0.25
SSCLVRGAQVKISERLKDTG	< -0.25
KVA	< -0.25
EAYGV	< -0.25
TTQHATVQGELLSTVPGWMC	< -0.25

Substance	growth estimate
VKVWSVDLRFDMGVPGYVVG	< -0.25
LPDGAERPILAAMVWSLRLD	< -0.25
SVLATLEPGPGSQLHYIMIA	< -0.25
YPDDGYWELV	< -0.25
VPNL	< -0.25
RLLHVLGARVTQRLITYVTL	< -0.25
SARGMDLLGVGMYLISLSFI	-0.19
VATLSGTRTSNLGGTSSLAR	< -0.25
LDDLAGVT	< -0.25
RQVTYFY	< -0.25
VCVDYVRSTQKG	< -0.25
MMRAHGTSRGSSVLGLPPHA	< -0.25
FNIPRTYGNPPGSPSSEDYT	< -0.25
ESYPWVCSDSTDTVWGLSTK	< -0.25
SLSVPLRS	< -0.25
ETIQKVQSCRTFATGTPVGR	< -0.25
IVVEVDGGIQKHTGLGALY	< -0.25
YSGILRKES	< -0.25
ESANYGLHGGLPDRWKTTAR	< -0.25
GQVTVILNSSEVREFLSPQR	< -0.25
RMP	< -0.25
WSTADASGPFERIVNTSTE	< -0.25
VTN	< -0.25
IVRPKAPGRGHFIVCVGLHA	< -0.25
LSGAPEAELHGI	< -0.25

Substance	growth estimate
TALRGDSNHRKYRLF	< -0.25
TRIGGSF	< -0.25
FQFT	< -0.25
GVGGVNDQRTGSFSLVFFHW	< -0.25
PEAKREGNR	< -0.25
RREGVQCICLVVCIVRDVRT	< -0.25
SFLSHIDPRLSRDTARVREM	< -0.25
RDI	< -0.25
RVHLLYFGGCIHGGWAVHPP	< -0.25
EIVL	-0.236
TPEDDCIEFGGIGIERSSKG	< -0.25
LCRACVCSVATLYYWGHHLD	< -0.25
YSSDKATSGMSRLDYRARQQ	< -0.25
LPSSIC	< -0.25
VFMMSMGEQALSENGEAIWV	< -0.25
ARLRHVPLGGLGWPSRTDFR	< -0.25
DRGGRYGRTSSSGACLEPPP	< -0.25
SAAIGWNRVTAAPVAIGIET	< -0.25
LTTGSGPSA	< -0.25
KEGVVLPVSTLALLHSIWLF	< -0.25
RRGIERAYLWERVWPLFGFF	< -0.25
IVSRR	< -0.25
RFMR	< -0.25
RRSTVRRFVT	< -0.25
IRPFTPVRVCAVCG	< -0.25

Substance	growth estimate
VRDLISASLKALEGCSPFTA	< -0.25
CQAFCCM	< -0.25
MDVVLTSLFGF	< -0.25
WCKCRAANPTAGMSRI	< -0.25
FPSFMYRLWKSRYMSVQLTV	< -0.25
SIRLIL	< -0.25
SAALSQFDRGAVLDILFVGT	-0.189
LSVGSGV	< -0.25
VLQVALALG	< -0.25
AGIRLIILGRTTRIRKDRWH	< -0.25
SKGR	< -0.25
PAIDFQL	< -0.25
SCVGPEARDADPQRSCHCTL	< -0.25
DGEPRILMCQRMRPFPCRPH	< -0.25
SNPEIEGRPIWERYKHTGTQ	< -0.25
RRRTQYITVRVPVQMLDALQ	< -0.25
ILNRSRYW	< -0.25
VKLSRAEQIEGYLVVTSHGM	< -0.25
RIRGALAVGIRPALLKGQRS	< -0.25
WEHETRIRPASVWCHLTKCA	< -0.25
AFMSPRVLRPSA	< -0.25
GIGHSLCHIALATFLRAFFQ	< -0.25
KWMLRSIATVIKATSTRLPL	< -0.25
SAPVP	< -0.25
LVVQKAY	< -0.25

Substance	growth estimate
LLQVFDRG	< -0.25
YRIGVCIVRLESAATDYRLG	< -0.25
LPATLYRVSTTIVGGASQ	< -0.25
VERITLWHQVRVERGI	< -0.25
VCIG	< -0.25
PFLG	< -0.25
YCRFGRGEIDLLFFDSLHGS	-0.194
VHRVSRRV	< -0.25
MMTLIRRILIPVRPNPLYLR	< -0.25
DGIVVMIVAKGRSGGDWVM	< -0.25
RRGTHFPLPHVWRIYSSEHQ	< -0.25
FIGILVIASIGWARGRTQVA	< -0.25
YGIKTYSMSFLALERQKAPP	< -0.25
ETLERTMKAHCRNAWDAIGS	< -0.25
ITWQVWCWG	< -0.25
SGDVAPAILVTLMAYRCLPG	< -0.25
HWYTNWF	-0.103
NGPTV	< -0.25
YQC	< -0.25
LWLQD	-0.246
QYRPHAREVVGPNKGFCHG	< -0.25
SSPSRTRVM	< -0.25
DVVGLESSEQNLNRVRECTI	< -0.25
SAP	< -0.25
RTRHVKAIWRGFFC	< -0.25

Substance	growth estimate
MALNRLE	< -0.25
LHTNAGMQPAMCDGIQEAPN	< -0.25
FGMTRYLFCDEHKGQMRERA	< -0.25
GARKSYAPNFEPPGGWTLGP	< -0.25
QPYLRLYSLSLLREGRGRGR	< -0.25
RLRGLVSV	< -0.25
AKSDVDSLYGRCKMGQWIDL	< -0.25
QRSSG	< -0.25
LLTQGESRMGASNIS	< -0.25
SLGSEAMFTWGQTSASRQT	< -0.25
RATRSQRSPDTALVTFP	< -0.25
RGYGTLG	< -0.25
FGSSGDQ	< -0.25
VSPMGRLGLRLVIAHVLRPR	< -0.25
NWPGLDFMYLGIN	< -0.25
VYSAFTGADSLCSLLINDEP	< -0.25
WWGMTVHRP	-0.245
RLAPAE	< -0.25
GFSISGRCKSRILICSGRLA	< -0.25
RVGNG	< -0.25
HVTVARDP	< -0.25
ARSSRSSNPALCVWCSRSCT	< -0.25
KASAVGGF	< -0.25
PAKIFRSETRRATVFSTPWC	< -0.25
FRWRYRVIESLRTLVPGD	< -0.25

Source: the supplement of paper PMC5949888
